# According to paper PMC5996148:
# Some of the results follow. For some of these results: Construct or isoform of the protein are uncertain.
# Assays:
# Test in all cases: protein microarray (ProtoArray v5.0), streptavidin-Alexa Fluor 647
# Conditions in all cases: 3'-biotin; 20 mM Tris (pH 7.5), 5 mM MgCl2, 100 mM KCl, 0.1% Tween-20, A/T-rich and random oligonucleotide blockers; temperature not stated; high values mean tight binding
# [1] = tested on: TRIM11 (human)
# [2] = tested on: TRIM32 (human)
# [3] = tested on: TRIM44 (human)
# [4] = tested on: TRIM63 (human)
# [5] = target: T1, TRIM69 (UniProt Q86WT6)
# T1 sequence: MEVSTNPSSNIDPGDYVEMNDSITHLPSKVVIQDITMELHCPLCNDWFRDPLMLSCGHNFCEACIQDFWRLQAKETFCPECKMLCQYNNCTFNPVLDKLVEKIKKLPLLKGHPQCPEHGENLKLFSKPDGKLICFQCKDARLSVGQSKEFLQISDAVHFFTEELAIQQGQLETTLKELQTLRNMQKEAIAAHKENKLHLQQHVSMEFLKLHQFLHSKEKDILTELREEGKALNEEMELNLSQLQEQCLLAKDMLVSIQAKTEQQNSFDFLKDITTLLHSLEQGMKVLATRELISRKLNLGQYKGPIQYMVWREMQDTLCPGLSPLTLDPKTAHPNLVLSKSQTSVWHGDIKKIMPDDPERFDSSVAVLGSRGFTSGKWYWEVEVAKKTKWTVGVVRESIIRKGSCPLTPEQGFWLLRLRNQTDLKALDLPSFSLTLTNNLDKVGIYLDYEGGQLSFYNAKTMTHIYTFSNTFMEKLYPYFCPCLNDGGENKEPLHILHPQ
# [6] = target: T2, TSC22D1 (UniProt Q15714)
# T2 sequence: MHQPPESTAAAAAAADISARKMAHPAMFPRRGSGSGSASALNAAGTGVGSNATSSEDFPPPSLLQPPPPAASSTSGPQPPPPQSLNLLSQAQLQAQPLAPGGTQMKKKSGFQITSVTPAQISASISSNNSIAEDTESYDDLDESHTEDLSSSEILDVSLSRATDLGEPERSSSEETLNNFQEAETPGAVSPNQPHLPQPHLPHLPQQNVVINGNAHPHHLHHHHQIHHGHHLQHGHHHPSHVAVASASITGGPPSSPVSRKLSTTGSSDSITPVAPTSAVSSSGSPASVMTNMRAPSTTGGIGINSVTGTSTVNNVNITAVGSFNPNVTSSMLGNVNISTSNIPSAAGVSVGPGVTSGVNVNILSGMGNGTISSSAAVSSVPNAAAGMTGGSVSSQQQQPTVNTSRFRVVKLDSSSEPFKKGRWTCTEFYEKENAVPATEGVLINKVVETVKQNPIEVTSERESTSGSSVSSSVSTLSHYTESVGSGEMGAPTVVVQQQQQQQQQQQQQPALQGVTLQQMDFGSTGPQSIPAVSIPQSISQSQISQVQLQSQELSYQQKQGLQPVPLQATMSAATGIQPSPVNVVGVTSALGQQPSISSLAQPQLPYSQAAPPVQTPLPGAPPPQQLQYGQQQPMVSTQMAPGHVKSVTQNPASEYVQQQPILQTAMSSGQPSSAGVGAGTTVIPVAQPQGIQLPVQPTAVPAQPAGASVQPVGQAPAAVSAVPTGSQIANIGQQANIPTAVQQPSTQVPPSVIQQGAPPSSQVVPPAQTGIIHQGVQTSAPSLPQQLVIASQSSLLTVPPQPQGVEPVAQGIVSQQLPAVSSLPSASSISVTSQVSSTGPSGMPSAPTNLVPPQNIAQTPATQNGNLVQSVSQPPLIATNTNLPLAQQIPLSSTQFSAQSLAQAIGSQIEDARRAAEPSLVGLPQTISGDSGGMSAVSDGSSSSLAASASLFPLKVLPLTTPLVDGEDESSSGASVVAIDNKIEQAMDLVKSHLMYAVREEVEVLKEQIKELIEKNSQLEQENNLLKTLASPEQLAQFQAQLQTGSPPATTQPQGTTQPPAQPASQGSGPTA
# [7] = tested on: TSNAXIP1 (human)
# [8] = tested on: TSPAN12 (human)
# [9] = tested on: TSPAN17 (human)
# [10] = target: T3, TSPAN5 (UniProt P62079)
# T3 sequence: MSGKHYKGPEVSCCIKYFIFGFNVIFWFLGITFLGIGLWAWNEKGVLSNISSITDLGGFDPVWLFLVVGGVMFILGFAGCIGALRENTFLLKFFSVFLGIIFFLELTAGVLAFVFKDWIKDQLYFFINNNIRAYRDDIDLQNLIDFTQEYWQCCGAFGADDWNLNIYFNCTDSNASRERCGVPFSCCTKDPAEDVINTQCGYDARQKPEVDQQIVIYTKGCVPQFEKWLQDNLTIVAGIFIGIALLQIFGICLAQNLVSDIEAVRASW
sequence,measurement,setting,value
GGTGACAGGGGTATGGGGAGGGG [G4-2 biotinylated (Ct1)],binding signal,[1],-0.394 z-score
same,binding signal,[2],-0.37 z-score
same,binding signal,[3],-0.395 z-score
same,binding signal,[4],-0.401 z-score
same,binding signal,[5],-0.372 z-score
same,binding signal,[6],-0.373 z-score
same,binding signal,[7],-0.396 z-score
same,binding signal,[8],-0.378 z-score
same,binding signal,[9],-0.373 z-score
same,binding signal,[10],-0.373 z-score
